Test results published in publication PMC7440846.

What follows are sequences tested against T1, LexA (UniProt P0A7C2) (assay: EMSA). Conditions: 100 and 500 nM LexA, 50 nM probe, 10 mM Mg2+, 70 mM Tris-HCl pH 7.6, 150 mM NaCl, 10 mM MgCl2, 1 mM DTT, 5% glycerol, 10 ng/ul sonicated salmon sperm DNA, 5 min, room temperature, recombinant protein, label: 5' IRDye 700 on strand 1.
T1 sequence (looked up, limits assumed): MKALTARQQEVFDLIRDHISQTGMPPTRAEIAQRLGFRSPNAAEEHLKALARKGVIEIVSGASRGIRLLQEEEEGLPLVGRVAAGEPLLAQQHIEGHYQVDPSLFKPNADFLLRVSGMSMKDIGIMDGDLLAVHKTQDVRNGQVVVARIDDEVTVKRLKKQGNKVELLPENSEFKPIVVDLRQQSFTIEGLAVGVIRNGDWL

Sequence | binding result
AATGCCTGCGGATACCGTATATATATACGGTATCAATTCTGGCT (double strand) [op-LR (T>C in both half-sites)] | binds more weakly
AATGCCTGCGGATACCGTATATATATACAGTATCAATTCTGGCT (double strand) [op-L (T>C in one half-site)] | binds more weakly
AATGCCTGCGGATACTGTATATATATACAGTATCAATTCTGGCT (double strand) [op+ / cons (consensus LexA operator)] | binds

The exact form of at least one protein or probe is not confirmed. The comparison behind a weaker result is the experiment's own reference, which may not be listed here. At least one verdict was read from the data and is not stated in words by the source. Protein sequences can lack the tags named with them.
